Sequences of proteins named here, by UniProt entry; tags and fusion partners are left off. A change or cut given only in a name is not applied to a line headed by its entry.
UniProt P35637: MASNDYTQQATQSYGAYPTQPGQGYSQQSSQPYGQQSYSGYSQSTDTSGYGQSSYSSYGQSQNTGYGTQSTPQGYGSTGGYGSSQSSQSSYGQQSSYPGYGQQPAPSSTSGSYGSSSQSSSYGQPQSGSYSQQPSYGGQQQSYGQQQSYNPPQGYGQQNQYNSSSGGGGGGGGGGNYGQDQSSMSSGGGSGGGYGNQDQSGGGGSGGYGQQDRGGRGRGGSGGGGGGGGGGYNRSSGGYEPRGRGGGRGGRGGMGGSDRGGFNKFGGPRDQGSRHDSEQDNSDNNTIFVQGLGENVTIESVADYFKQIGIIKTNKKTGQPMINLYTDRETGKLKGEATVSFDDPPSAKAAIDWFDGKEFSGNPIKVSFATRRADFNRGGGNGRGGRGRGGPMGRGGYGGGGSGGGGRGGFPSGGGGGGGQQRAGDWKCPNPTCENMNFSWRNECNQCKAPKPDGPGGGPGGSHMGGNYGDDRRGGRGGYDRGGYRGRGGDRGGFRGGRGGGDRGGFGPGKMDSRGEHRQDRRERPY
UniProt Q01844: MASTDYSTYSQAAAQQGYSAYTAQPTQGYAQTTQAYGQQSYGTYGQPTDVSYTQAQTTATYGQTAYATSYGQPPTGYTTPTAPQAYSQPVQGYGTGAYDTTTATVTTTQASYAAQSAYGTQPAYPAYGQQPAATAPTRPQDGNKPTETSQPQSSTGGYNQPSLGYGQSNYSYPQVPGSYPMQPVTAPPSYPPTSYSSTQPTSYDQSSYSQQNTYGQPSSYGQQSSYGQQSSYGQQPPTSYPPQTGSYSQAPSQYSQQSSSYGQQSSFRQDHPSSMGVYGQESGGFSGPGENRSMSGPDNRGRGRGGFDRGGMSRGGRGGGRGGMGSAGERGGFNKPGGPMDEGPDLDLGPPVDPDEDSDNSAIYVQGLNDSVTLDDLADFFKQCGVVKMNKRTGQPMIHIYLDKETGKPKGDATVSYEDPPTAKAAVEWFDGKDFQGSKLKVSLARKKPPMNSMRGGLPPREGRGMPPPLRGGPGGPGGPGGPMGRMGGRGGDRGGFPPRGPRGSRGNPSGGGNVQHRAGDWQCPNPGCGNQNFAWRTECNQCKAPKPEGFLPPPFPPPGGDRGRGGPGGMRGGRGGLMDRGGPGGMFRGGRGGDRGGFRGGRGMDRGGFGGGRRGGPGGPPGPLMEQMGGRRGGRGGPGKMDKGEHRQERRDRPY

According to paper PMC6570784:

How the values were obtained:
[1] = target: LL P525L FUS-eGFP (human (endogenous in iPSC-derived neurons)) (UniProt P35637); test: affinity purification with mass spectrometry; GFP-Trap immunoprecipitation of FUS-eGFP from LL WT and LL P525L iPSC-derived neurons, label-free LC-MS/MS; non-transgenic parental line to filter out non-specific interactors
[2] = target: LL WT FUS-eGFP (human (endogenous in iPSC-derived neurons)) (UniProt P35637); test: as above

Ewing sarcoma breakpoint region 1 (from UniProt Q01844 1-656)
binding [1]: binds | binding [2]: binds

No constants are given. Whether binding was seen depends on the method and setting. Binding seen in cells or lysates may run through a third protein. A yes stands for co-enrichment or nearness to the bait. Other partners may have been found.
